Assay results from patent publication US20160207951A1, “ORGANOMETALLIC COMPOUNDS FOR USE AS ANTHELMINTICS” (UNIVERSITÄT ZÜRICH, priority 2013, published 2016).
Some entries share one result that the patent states for a list of compounds. For at least one compound, name, drawing or mass did not settle the structure.

Tested on: Dirofilaria immitis
Assay: activity in vitro against Dirofilaria immitis microfilariae (motility)
Conditions: dosage of 10 mg/mg; parasite not given

N-ferrocenyl-4-((trifluoromethyl)thio)benzamide [Compound 2]
efficacy: up to 98%

I[c-]1cccc1.N#CS[c-]1cccc1.[Ru+2] [Compound 40, 1,1′-Thiocyanatoiodruthenocene]
efficacy: up to 98%
